In the supplement of paper PMC10849652:
The other results are listed elsewhere or left out.

Protein sequences, listed by entry. Tags and fused reporters are not part of them. Lines headed by an entry give the natural chain unless they say otherwise; changes in a name come on top.
UniProt P08579, whole entry, looked up: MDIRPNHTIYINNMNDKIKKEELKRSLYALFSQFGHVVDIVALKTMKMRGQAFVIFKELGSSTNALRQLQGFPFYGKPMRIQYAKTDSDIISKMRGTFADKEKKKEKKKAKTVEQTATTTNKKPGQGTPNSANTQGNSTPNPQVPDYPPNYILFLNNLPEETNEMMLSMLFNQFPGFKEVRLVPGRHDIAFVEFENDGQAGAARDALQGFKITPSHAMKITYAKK
UniProt Q96DI7: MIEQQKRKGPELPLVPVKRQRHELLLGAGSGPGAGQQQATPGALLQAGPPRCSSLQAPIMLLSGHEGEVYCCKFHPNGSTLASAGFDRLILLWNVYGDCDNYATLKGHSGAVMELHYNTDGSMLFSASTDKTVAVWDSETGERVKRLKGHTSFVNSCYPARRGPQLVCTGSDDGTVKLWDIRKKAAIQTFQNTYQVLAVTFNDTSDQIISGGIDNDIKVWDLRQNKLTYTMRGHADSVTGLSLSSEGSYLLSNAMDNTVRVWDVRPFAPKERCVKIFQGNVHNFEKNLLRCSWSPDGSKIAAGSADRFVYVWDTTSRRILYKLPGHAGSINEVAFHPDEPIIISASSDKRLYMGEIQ
UniProt P08294: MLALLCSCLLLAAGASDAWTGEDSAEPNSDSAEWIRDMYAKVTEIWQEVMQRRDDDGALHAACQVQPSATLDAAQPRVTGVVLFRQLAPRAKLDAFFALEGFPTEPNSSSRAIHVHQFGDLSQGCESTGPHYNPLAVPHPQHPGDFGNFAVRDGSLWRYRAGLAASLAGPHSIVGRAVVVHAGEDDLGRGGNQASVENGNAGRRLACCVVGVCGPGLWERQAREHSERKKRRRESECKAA
UniProt Q9UMY4: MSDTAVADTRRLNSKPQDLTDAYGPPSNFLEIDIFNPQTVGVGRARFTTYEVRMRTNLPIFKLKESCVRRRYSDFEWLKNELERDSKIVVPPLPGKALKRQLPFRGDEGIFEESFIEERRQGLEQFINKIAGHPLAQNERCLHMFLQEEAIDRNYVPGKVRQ
UniProt Q86US8: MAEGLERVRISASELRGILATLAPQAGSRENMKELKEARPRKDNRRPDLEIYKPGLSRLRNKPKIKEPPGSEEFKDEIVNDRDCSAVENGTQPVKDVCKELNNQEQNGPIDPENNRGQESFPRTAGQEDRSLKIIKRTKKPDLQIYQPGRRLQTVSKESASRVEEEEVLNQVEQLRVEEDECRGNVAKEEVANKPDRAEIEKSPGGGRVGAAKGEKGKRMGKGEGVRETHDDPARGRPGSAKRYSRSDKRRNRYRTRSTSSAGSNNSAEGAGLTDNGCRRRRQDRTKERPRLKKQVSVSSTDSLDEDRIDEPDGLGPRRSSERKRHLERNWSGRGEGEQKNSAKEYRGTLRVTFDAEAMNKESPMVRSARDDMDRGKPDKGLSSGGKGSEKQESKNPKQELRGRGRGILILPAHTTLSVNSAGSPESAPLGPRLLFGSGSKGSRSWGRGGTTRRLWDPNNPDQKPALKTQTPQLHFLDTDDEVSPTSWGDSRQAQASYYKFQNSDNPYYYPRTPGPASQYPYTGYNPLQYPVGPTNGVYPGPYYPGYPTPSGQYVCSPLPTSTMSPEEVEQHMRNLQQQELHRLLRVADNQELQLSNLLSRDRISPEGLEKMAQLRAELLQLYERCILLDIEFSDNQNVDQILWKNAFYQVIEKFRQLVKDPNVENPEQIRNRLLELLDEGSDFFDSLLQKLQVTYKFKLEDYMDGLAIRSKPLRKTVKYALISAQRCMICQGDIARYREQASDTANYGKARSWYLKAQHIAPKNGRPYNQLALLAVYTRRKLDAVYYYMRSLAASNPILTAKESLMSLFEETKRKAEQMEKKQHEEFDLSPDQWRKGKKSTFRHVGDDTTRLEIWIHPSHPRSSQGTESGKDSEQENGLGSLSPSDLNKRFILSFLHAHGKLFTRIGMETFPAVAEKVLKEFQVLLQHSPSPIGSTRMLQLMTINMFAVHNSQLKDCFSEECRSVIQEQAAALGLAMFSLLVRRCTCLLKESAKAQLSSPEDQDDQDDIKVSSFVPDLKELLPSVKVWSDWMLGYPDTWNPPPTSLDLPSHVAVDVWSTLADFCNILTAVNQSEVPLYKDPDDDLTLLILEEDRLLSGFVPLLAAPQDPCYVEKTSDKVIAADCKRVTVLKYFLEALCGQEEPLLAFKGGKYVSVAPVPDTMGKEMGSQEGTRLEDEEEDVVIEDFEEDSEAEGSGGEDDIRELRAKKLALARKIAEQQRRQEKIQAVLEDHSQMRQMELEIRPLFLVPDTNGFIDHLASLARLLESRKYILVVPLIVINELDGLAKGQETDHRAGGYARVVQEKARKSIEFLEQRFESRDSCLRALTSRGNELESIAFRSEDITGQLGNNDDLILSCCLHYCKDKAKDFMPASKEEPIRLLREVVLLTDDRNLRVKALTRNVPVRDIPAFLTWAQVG
UniProt Q9H2G2: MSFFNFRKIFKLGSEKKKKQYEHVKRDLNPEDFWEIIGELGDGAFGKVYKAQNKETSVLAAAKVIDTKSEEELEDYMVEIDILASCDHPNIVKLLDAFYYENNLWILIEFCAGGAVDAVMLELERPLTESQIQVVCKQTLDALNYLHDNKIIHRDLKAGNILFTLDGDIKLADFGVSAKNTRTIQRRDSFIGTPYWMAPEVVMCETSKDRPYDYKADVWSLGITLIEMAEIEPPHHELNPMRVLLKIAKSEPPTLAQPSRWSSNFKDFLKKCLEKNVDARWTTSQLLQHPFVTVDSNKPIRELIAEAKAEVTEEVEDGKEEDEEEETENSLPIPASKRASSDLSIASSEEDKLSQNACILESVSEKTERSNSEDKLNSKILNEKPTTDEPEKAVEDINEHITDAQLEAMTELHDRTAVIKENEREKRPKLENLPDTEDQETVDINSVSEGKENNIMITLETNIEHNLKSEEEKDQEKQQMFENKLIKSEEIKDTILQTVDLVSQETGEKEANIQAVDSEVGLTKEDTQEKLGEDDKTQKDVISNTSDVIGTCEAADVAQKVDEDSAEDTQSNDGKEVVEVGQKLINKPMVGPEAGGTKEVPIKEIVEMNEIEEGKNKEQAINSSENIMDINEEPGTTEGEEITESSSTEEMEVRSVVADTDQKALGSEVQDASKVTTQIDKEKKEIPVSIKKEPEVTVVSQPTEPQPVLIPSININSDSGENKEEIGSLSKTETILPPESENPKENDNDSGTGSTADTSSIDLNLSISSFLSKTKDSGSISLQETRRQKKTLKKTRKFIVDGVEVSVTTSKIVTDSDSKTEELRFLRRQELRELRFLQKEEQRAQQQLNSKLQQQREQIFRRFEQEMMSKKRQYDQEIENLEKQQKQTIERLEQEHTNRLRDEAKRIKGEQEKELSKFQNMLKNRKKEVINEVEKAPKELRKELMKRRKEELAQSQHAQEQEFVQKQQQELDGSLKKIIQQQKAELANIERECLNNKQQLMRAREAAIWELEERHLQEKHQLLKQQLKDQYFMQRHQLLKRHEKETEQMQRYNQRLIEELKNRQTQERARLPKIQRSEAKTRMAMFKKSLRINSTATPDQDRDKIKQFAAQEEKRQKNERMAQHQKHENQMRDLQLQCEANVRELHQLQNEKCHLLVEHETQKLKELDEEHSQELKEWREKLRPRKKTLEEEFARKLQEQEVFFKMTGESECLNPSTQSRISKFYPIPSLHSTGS
UniProt O95149, whole entry, looked up: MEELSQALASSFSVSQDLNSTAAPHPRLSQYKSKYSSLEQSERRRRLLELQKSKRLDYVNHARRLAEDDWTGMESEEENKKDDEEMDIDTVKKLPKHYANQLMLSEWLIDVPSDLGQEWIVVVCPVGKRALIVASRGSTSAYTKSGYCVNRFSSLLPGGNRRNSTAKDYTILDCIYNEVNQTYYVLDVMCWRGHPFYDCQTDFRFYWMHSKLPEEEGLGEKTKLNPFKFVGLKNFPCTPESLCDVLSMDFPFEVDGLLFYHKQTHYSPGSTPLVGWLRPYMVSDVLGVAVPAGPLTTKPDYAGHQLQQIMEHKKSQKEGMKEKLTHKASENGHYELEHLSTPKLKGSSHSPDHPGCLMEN
UniProt Q13596, whole entry, looked up: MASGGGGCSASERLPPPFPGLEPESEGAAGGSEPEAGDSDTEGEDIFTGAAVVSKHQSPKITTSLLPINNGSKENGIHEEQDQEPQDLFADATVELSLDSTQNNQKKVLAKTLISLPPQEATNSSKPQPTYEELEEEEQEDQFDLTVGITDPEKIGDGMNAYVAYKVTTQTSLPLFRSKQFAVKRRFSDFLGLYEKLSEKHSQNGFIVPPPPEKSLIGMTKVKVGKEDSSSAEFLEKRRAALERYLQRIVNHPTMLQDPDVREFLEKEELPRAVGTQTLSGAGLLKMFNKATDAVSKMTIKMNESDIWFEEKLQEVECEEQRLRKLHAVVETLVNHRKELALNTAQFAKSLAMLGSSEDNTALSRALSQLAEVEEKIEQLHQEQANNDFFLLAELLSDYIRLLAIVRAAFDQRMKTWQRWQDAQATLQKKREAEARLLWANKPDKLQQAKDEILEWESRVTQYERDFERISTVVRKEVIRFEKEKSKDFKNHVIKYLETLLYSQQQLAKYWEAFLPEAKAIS
UniProt Q8WVK2: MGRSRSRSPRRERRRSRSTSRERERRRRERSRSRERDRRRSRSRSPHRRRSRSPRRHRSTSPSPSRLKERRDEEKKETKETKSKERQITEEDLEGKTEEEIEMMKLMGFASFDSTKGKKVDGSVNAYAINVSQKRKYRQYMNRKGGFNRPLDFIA

Columns and labels:
Assay in all cases: log2 fold change, soluble protein after heating vs DMSO (PISA); higher = thermal stabilisation; K562 cells, 10 uM, 30 min; active = over 0.2 and 3.5 SD of the protein, either way, in both replicates (recomputed)
[1] = compound: CN1CCN(CCOc2cc(OC3CCOCC3)c3c(Nc4c(Cl)ccc5c4OCO5)ncnc3c2)CC1 [saracatinib]
Method in brief: (§1)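 K562 cells at 2×10^6 cells/mL were exposed to 10 μM compound for 30 min, then aliquots were heated for 3 min across 48°C-58°C, pooled, and extracted in PBS containing 0.5% NP-40 at 4°C. The supernatant after 21,000xg for 90 min was taken as soluble protein and measured by TMTpro 16plex LC-MS/MS with channel sums equalised. Thermal stability is reported relative to control samples, with values from duplicates. Fold changes are given on a log2 scale.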

[2] = compound: CN1CCN(c2nc(C3=C(c4c[nH]c5ccccc45)C(=O)NC3=O)c3ccccc3n2)CC1 [sotrastaurin]
Method in brief: as §1

[3] = compound: CN1CCc2c(c3ccccc3n2Cc2ccc(C(=O)NO)cc2)C1 [Tubastatin A]
Method in brief: as §1

[4] = compound: CNC(=O)C1=CC=CC=C1NC2=NC(=NC=C2Cl)NC3=C(C=C(C=C3)N4CCOCC4)OC
Method in brief: as §1

[5] = compound: CNC(=O)c1ccc(Nc2ncc(C(F)(F)F)c(NCc3nccnc3N(C)S(C)(=O)=O)n2)cc1 [defactinib]
Method in brief: as §1

[6] = compound: CNCc1ccc(-c2[nH]c3cc(F)cc4c3c2CCNC4=O)cc1 [rucaparib]
Method in brief: as §1

[7] = compound: CNc1nc(-c2ccc3c(N)n[nH]c3c2)cc(N2C[C@@H](C(=O)NC3CCCCC3)CC[C@H]2C)n1
Method in brief: as §1

[8] = compound: COC(=O)N[C@@H](C)CNc1nccc(-c2cn(C(C)C)nc2-c2cc(Cl)cc(NS(C)(=O)=O)c2F)n1 [encorafenib]
Method in brief: as §1

[9] = compound: COC(=O)[C@H](CCSC)NC(=O)C1=C(C=C(C=C1)NC[C@H](CS)N)C2=CC=CC=C2
Method in brief: as §1

[10] = compound: COC1=CC=C(C=C1)CN2C=CC3=C2C=C(C=C3)C(=O)NO
Method in brief: as §1

[11] = compound: CON(C)C(=O)N1N=C(c2cc(F)ccc2F)S[C@@]1(CCCN)c1ccccc1 [filanesib]
Method in brief: as §1

[12] = compound: CO[C@H]1C[C@@H]2CC[C@@H](C)[C@@](O)(O2)C(=O)C(=O)N2CCCC[C@H]2C(=O)O[C@H]([C@H](C)C[C@@H]2CC[C@H](n3cnnn3)[C@H](OC)C2)CC(=O)[C@H](C)/C=C(\C)[C@@H](O)[C@@H](OC)C(=O)[C@H](C)C[C@H](C)/C=C/C=C/C=C/1C [zotarolimus]
Method in brief: as §1

[13] = compound: COc1cc(C(=O)O)ccc1NC(=O)[C@@H]1N[C@@H](CC(C)(C)C)[C@](C#N)(c2ccc(Cl)cc2F)[C@H]1c1cccc(Cl)c1F [idasanutlin]
Method in brief: as §1

[14] = compound: COc1cc(Nc2ncc3c(n2)-c2ccc(Cl)cc2C(c2c(F)cccc2OC)=NC3)ccc1C(=O)O [alisertib]
Method in brief: as §1

[15] = compound: COc1cc2nc(-c3cc(F)ccc3O)nc(N[C@@H]3CNC[C@H]3C(C)(C)O)c2cc1OC
Method in brief: as §1

[16] = compound: COc1cc2ncnc(Nc3ccc(F)c(Cl)c3)c2cc1OCCCN1CCOCC1 [gefitinib]
Method in brief: as §1

[17] = compound: COc1cccc2cc(-c3nc([C@H]4CC[C@H](C(=O)O)CC4)n4ncnc(N)c34)[nH]c12
Method in brief: as §1

[18] = compound: CS(=O)(=O)CCNCc1ccc(-c2ccc3ncnc(Nc4ccc(OCc5cccc(F)c5)c(Cl)c4)c3c2)o1 [lapatinib]
Method in brief: as §1

[19] = compound: CS(=O)(=O)N1CCN(Cc2cc3nc(-c4cccc5[nH]ncc45)nc(N4CCOCC4)c3s2)CC1 [pictilisib]
Method in brief: as §1

[20] = compound: CN1CC[C@H](c2c(O)cc(O)c3c(=O)cc(-c4ccccc4Cl)oc23)[C@H](O)C1 [alvocidib]
Method in brief: as §1

Target | log2 fold change [1] | log2 fold change [2] | log2 fold change [3] | log2 fold change [4] | log2 fold change [5] | log2 fold change [6] | log2 fold change [7] | log2 fold change [8] | log2 fold change [9] | log2 fold change [10] | log2 fold change [11] | log2 fold change [12] | log2 fold change [13] | log2 fold change [14] | log2 fold change [15] | log2 fold change [16] | log2 fold change [17] | log2 fold change [18] | log2 fold change [19] | log2 fold change [20]
SNRPB2 (UniProt P08579) | inactive: 0.079 | inactive: 0.041 | inactive: -0.11 | inactive: 0.02 | inactive: 0.193 | inactive: 0.058 | inactive: -0.041 | inactive: -0.037 | inactive: 0.054 | inactive: -0.018 | inactive: 0.057 | inactive: -0.035 | inactive: 0.021 | inactive: -0.121 | inactive: 0.047 | inactive: -0.021 | inactive: -0.006 | inactive: -0.002 | inactive: 0.006 | 
SNRNP40 (UniProt Q96DI7) | inactive: 0.068 | inactive: -0.01 | inactive: -0.092 | inactive: 0.045 | inactive: 0.128 | inactive: 0.012 | inactive: -0.03 | inactive: 0.039 | inactive: -0.034 | inactive: -0.039 | inactive: 0.08 | inactive: -0.015 | inactive: 0.007 | inactive: -0.054 | inactive: 0.191 | inactive: -0.052 | inactive: 0.025 | inactive: 0.02 | active: 0.295 | 
SOD3 (UniProt P08294) | inactive: 0.036 | inactive: -0.003 | inactive: 0 |  | inactive: -0.11 |  | inactive: -0.111 |  | inactive: -0.013 |  | inactive: -0.047 | inactive: -0.076 | inactive: -0.003 | inactive: 0.018 | inactive: 0.301 |  | inactive: 0.123 | inactive: -0.015 | inactive: 0.109 | inactive: 0.072
SNX12 isoform 1 (UniProt Q9UMY4) | inactive: 0.035 | inactive: 0.07 | inactive: 0.013 | inactive: 0.059 | inactive: -0.025 | inactive: -0.025 | inactive: -0.028 | inactive: 0.15 | inactive: -0.037 | inactive: -0.029 | inactive: -0.027 | inactive: -0.007 | inactive: 0.039 | inactive: 0.005 | inactive: -0.008 | inactive: 0.035 | inactive: 0.09 | inactive: -0.006 | inactive: -0.002 | 
SMG6 (UniProt Q86US8) | inactive: -0.098 | inactive: -0.147 | inactive: 0.431 |  |  |  | inactive: -0.211 |  |  |  | inactive: -0.138 | inactive: -0.013 |  |  |  | inactive: -0.028 |  |  |  | inactive: 0.568
SLK isoform 2 (UniProt Q9H2G2) | inactive: -0.015 | inactive: -0.192 | inactive: 0.025 | inactive: 0.079 | inactive: -0.089 | inactive: 0.048 | inactive: 0.02 | inactive: 0.052 | inactive: 0.012 | inactive: 0.001 | inactive: 0.042 | inactive: -0.007 | inactive: -0.008 | inactive: -0.045 | inactive: -0.103 | inactive: 0.025 | inactive: -0.079 | inactive: -0.193 | active: 0.212 | 
SNUPN (UniProt O95149) | inactive: 0.052 | inactive: -0.069 | inactive: -0.036 | inactive: -0.019 | inactive: -0.056 | inactive: -0.027 | inactive: -0.04 | inactive: 0.021 | inactive: 0.028 | inactive: 0.001 | inactive: -0.09 | inactive: -0.007 | inactive: 0.05 | inactive: -0.013 | inactive: -0.05 | inactive: 0.014 | inactive: 0.005 | inactive: 0.019 | inactive: -0.021 | 
SNX1 (UniProt Q13596) | inactive: 0.006 | inactive: -0.006 | inactive: -0.021 | inactive: -0.112 | inactive: -0.036 | inactive: -0.023 | inactive: 0.028 | inactive: 0.024 | inactive: -0.026 | inactive: -0.021 | inactive: -0.182 | inactive: 0.042 | inactive: -0.013 | inactive: -0.003 | inactive: -0.063 | inactive: -0.165 | inactive: 0 | inactive: -0.027 | inactive: -0.205 | 
SNRNP27 (UniProt Q8WVK2) | inactive: -0.071 | inactive: 0.048 | inactive: -0.023 | inactive: -0.036 | inactive: 0.015 | inactive: 0.049 | inactive: -0.09 | inactive: -0.061 | inactive: 0.097 | inactive: -0.075 | inactive: 0.03 | inactive: -0.156 | inactive: 0.121 | inactive: -0.003 | inactive: -0.015 | inactive: -0.011 | inactive: 0.135 | inactive: 0.005 | inactive: -0.009 | 

2 neighbouring entries out of the list so far:
Target | log2 fold change [1] | log2 fold change [2] | log2 fold change [3] | log2 fold change [4] | log2 fold change [5] | log2 fold change [6] | log2 fold change [7] | log2 fold change [8] | log2 fold change [9] | log2 fold change [10] | log2 fold change [11] | log2 fold change [12] | log2 fold change [13] | log2 fold change [14] | log2 fold change [15] | log2 fold change [16] | log2 fold change [17] | log2 fold change [18] | log2 fold change [19] | log2 fold change [20]
SOD3 (UniProt P08294) | inactive: 0.036 | inactive: -0.003 | inactive: 0 |  | inactive: -0.11 |  | inactive: -0.111 |  | inactive: -0.013 |  | inactive: -0.047 | inactive: -0.076 | inactive: -0.003 | inactive: 0.018 | inactive: 0.301 |  | inactive: 0.123 | inactive: -0.015 | inactive: 0.109 | inactive: 0.072
SNX12 isoform 1 (UniProt Q9UMY4) | inactive: 0.035 | inactive: 0.07 | inactive: 0.013 | inactive: 0.059 | inactive: -0.025 | inactive: -0.025 | inactive: -0.028 | inactive: 0.15 | inactive: -0.037 | inactive: -0.029 | inactive: -0.027 | inactive: -0.007 | inactive: 0.039 | inactive: 0.005 | inactive: -0.008 | inactive: 0.035 | inactive: 0.09 | inactive: -0.006 | inactive: -0.002 | 
